According to PMC6642263:
These are yes or no findings as the source states them, for the method shown. For some of these results: In cells and extracts the contact can be indirect. Some entries that bind do so weakly or less than the wild type. For some of these results: Where a sequence is shown, tags or fusion partners need not be part of it.

Chains of the proteins cited; added tags and fusions are not shown.
UniProt P02340: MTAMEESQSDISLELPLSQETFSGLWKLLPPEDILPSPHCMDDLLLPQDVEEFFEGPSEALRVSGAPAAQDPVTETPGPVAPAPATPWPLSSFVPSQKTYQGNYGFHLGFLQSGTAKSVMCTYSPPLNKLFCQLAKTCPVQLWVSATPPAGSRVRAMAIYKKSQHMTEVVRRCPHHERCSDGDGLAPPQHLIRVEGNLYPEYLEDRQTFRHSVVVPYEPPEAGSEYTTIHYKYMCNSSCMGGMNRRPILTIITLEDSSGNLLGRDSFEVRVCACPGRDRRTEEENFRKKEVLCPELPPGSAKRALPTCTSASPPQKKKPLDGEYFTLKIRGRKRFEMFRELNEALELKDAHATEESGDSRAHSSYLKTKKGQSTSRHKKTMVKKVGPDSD
UniProt Q13547: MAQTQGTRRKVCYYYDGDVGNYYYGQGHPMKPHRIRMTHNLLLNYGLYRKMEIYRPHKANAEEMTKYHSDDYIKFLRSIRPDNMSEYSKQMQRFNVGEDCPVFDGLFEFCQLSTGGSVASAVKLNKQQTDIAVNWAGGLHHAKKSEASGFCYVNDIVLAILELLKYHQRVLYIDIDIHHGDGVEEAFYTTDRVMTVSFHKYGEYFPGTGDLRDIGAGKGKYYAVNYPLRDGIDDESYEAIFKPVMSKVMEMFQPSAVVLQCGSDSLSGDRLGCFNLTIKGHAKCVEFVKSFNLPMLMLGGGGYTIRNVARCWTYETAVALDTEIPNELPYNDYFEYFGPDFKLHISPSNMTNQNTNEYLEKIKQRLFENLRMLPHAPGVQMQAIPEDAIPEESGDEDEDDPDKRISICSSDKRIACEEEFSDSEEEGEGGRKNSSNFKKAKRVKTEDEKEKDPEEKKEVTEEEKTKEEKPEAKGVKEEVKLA
UniProt Q92769: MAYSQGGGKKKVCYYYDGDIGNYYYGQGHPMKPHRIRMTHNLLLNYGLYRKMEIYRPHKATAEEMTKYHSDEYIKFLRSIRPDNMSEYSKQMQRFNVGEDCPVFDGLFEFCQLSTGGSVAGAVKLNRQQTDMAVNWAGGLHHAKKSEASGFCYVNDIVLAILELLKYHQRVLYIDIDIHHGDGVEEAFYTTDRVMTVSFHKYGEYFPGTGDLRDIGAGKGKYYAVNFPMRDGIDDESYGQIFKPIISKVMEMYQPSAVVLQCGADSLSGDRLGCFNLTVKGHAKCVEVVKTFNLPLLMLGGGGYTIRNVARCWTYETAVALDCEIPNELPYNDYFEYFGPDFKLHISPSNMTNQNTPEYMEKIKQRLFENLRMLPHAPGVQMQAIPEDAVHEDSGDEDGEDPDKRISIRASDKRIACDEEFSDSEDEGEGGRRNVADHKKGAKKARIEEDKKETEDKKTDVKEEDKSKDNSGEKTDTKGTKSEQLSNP

How the values were obtained:
[1] = biological target: p53 (endogenous, mouse breast stromal CAFs) (mouse (endogenous in mammary tumour CAFs)) (UniProt P02340); experiment: co-IP; endogenous proteins in lysates of mouse and human stromal CAFs; IP lysis buffer 50 mM Tris-HCl, 150 mM NaCl, 1 mM EDTA, 1% NP40, pH 7.4; Protein A/G agarose beads
His-p53 = His-p53 (UniProt P04637); experiment: pull-down; His pull-down: recombinant His-p53 bound to Ni-NTA beads, co-incubated with FLAG-ZEB1 protein (FLAG peptide eluted); both purified
HA-p53 wild-type = HA-p53 wild-type (UniProt P04637); experiment: co-IP; lysates of 293T cells transfected with FLAG-ZEB1 and HA-p53 or HA-p53 fragments; IP lysis buffer 50 mM Tris-HCl, 150 mM NaCl, 1 mM EDTA, 1% NP40, pH 7.4
His-HDAC1 [2] = biological target: His-HDAC1 (UniProt Q13547); experiment: pull-down; His pull-down: beads-bound His-p53, His-HDAC1 or His-HDAC2 incubated with lysates of HEK293T cells transfected with FLAG-ZEB1 full-length or truncated mutants, 4 °C overnight; only the target purified
His-HDAC1 [3] = biological target: His-HDAC1 (UniProt Q13547); experiment: pull-down; His pull-down: His-HDAC1 or His-HDAC2 (beads bound, from E. coli) incubated overnight with GST-p53 (eluted, from E. coli), without or with FLAG-ZEB1 (FLAG peptide eluted, from 293T cells); both purified
His-HDAC2 = His-HDAC2 (UniProt Q92769); experiment: as above
[4] = biological target: p53 (endogenous, human breast stromal CAFs) (human (endogenous in breast tumour CAFs)) (UniProt P04637); experiment: co-IP; endogenous proteins in lysates of mouse and human stromal CAFs; IP lysis buffer 50 mM Tris-HCl, 150 mM NaCl, 1 mM EDTA, 1% NP40, pH 7.4; Protein A/G agarose beads

B1: ZEB1 (endogenous, mouse breast stromal CAFs) (protein, UniProt Q64318 1-1117)
chain: MADGPRCKRRKQANPRRNNVTNYNTVVEANSDSDDEDKLHIVEEESITDAADCEGGMPDDELPADQTVLPGGSDRGGGAKNCWQDNVKDNECDSDAENEQNHDPNVEEFLQQQDTAVIYPEAPEEDQRQGTPEASSHDENGTPDAFSQLLTCPYCDRGYKRFTSLKEHIKYRHEKNEDNFSCSLCSYTFAYRTQLERHMTSHKSGREQRHVTQSGGNRKFKCTECGKAFKYKHHLKEHLRIHSGEKPYECPNCKKRFSHSGSYSSHISSKKCISLMPVNGRPRSGLKTSQCSSPSLSTSPGSPTRPQIRQKIENKPLQEPLSVNQIKTEPVDYEFKPIVVASGINCSTPLQNGVFSSGGQLQATSSPQGVVQAVVLPTVGLVSPISINLSDIQNVLKVAVDGNVIRQVLETNQASLASKEQEAVSASPIQQGGHSVISAISLPLVDQDGTTKIIINYSLEQPSQLQVVPQNLKKEIPAPTNSCKSEKLPEDLTVKSETDKSFEGARDDSTCLLCEDCPGDLNALPELKHYDPECPAQPPPPAPATEKPESSASSAGNGDLSPSQPPLKNLLSLLKAYYALNAQPSTEELSKIADSVNLPLDGVKKWFEKMQAGQIPGQSPDPPSPGTGSVNIPTKTDEQPQPADGNEPQEDSTRGQSPVKIRSSPVLPVGSAMNGSRSCTSSPSPLNLCSARNPQGYSCVAEGAQEEPQVEPLDLSLPKQQGELLERSTVSSVYQNSVYSVQEEPLNLSCAKKEPQKDSCVTDSEPVVNVVPPSANPINIAIPTVTAQLPTIVAIADQNSVPCLRALAANKQTILIPQVAYTYSATVSPAVQEPPVKVIQPNGNQDERQDTSSEGVSTVEDQNDSDSTPPKKKTRKTENGMYACDLCDKIFQKSSSLLRHKYEHTGKRPHECGICRKAFKHKHHLIEHMRLHSGEKPYQCDKCGKRFSHSGSYSQHMNHRYSYCKRGAEDRDAMEQEDAGPEVLPEVLATEHVGARASPSQADSDERESLTREEDEDSEKEEEEEDKEMEELQEGKECENPQGEEEEEEEEEEEEEEEEEEEVEADEAEHEAAAKTDGTVEVGAAQQAGSLEQKASESEMESESESEQLSEEKTNEA
B1 was tested, and the binding [1] was “binds”.

B2: FLAG-ZEB1 full-length (protein, UniProt P37275 1-1124)
chain: MADGPRCKRRKQANPRRNNVTNYNTVVETNSDSDDEDKLHIVEEESVTDAADCEGVPEDDLPTDQTVLPGRSSEREGNAKNCWEDDRKEGQEILGPEAQADEAGCTVKDDECESDAENEQNHDPNVEEFLQQQDTAVIFPEAPEEDQRQGTPEASGHDENGTPDAFSQLLTCPYCDRGYKRFTSLKEHIKYRHEKNEDNFSCSLCSYTFAYRTQLERHMTSHKSGRDQRHVTQSGCNRKFKCTECGKAFKYKHHLKEHLRIHSGEKPYECPNCKKRFSHSGSYSSHISSKKCISLIPVNGRPRTGLKTSQCSSPSLSASPGSPTRPQIRQKIENKPLQEQLSVNQIKTEPVDYEFKPIVVASGINCSTPLQNGVFTGGGPLQATSSPQGMVQAVVLPTVGLVSPISINLSDIQNVLKVAVDGNVIRQVLENNQANLASKEQETINASPIQQGGHSVISAISLPLVDQDGTTKIIINYSLEQPSQLQVVPQNLKKENPVATNSCKSEKLPEDLTVKSEKDKSFEGGVNDSTCLLCDDCPGDINALPELKHYDLKQPTQPPPLPAAEAEKPESSVSSATGDGNLSPSQPPLKNLLSLLKAYYALNAQPSAEELSKIADSVNLPLDVVKKWFEKMQAGQISVQSSEPSSPEPGKVNIPAKNNDQPQSANANEPQDSTVNLQSPLKMTNSPVLPVGSTTNGSRSSTPSPSPLNLSSSRNTQGYLYTAEGAQEEPQVEPLDLSLPKQQGELLERSTITSVYQNSVYSVQEEPLNLSCAKKEPQKDSCVTDSEPVVNVIPPSANPINIAIPTVTAQLPTIVAIADQNSVPCLRALAANKQTILIPQVAYTYSTTVSPAVQEPPLKVIQPNGNQDERQDTSSEGVSNVEDQNDSDSTPPKKKMRKTENGMYACDLCDKIFQKSSSLLRHKYEHTGKRPHECGICKKAFKHKHHLIEHMRLHSGEKPYQCDKCGKRFSHSGSYSQHMNHRYSYCKREAEERDSTEQEEAGPEILSNEHVGARASPSQGDSDERESLTREEDEDSEKEEEEEDKEMEELQEEKECEKPQGDEEEEEEEEEVEEEEVEEAENEGEEAKTEGLMKDDRAESQASSLGQKVGESSEQVSEEKTNEA
For B2, the binding (His-p53) was “binds”, the binding (HA-p53 wild-type) was “binds” and the binding (His-HDAC1 [2]) was “binds”. The binding (His-HDAC1 [3]) was “binds” and the binding (His-HDAC2) was “binds”.

B3: ZEB1 (endogenous, human breast stromal CAFs) (protein, UniProt P37275 1-1124)
chain: MADGPRCKRRKQANPRRNNVTNYNTVVETNSDSDDEDKLHIVEEESVTDAADCEGVPEDDLPTDQTVLPGRSSEREGNAKNCWEDDRKEGQEILGPEAQADEAGCTVKDDECESDAENEQNHDPNVEEFLQQQDTAVIFPEAPEEDQRQGTPEASGHDENGTPDAFSQLLTCPYCDRGYKRFTSLKEHIKYRHEKNEDNFSCSLCSYTFAYRTQLERHMTSHKSGRDQRHVTQSGCNRKFKCTECGKAFKYKHHLKEHLRIHSGEKPYECPNCKKRFSHSGSYSSHISSKKCISLIPVNGRPRTGLKTSQCSSPSLSASPGSPTRPQIRQKIENKPLQEQLSVNQIKTEPVDYEFKPIVVASGINCSTPLQNGVFTGGGPLQATSSPQGMVQAVVLPTVGLVSPISINLSDIQNVLKVAVDGNVIRQVLENNQANLASKEQETINASPIQQGGHSVISAISLPLVDQDGTTKIIINYSLEQPSQLQVVPQNLKKENPVATNSCKSEKLPEDLTVKSEKDKSFEGGVNDSTCLLCDDCPGDINALPELKHYDLKQPTQPPPLPAAEAEKPESSVSSATGDGNLSPSQPPLKNLLSLLKAYYALNAQPSAEELSKIADSVNLPLDVVKKWFEKMQAGQISVQSSEPSSPEPGKVNIPAKNNDQPQSANANEPQDSTVNLQSPLKMTNSPVLPVGSTTNGSRSSTPSPSPLNLSSSRNTQGYLYTAEGAQEEPQVEPLDLSLPKQQGELLERSTITSVYQNSVYSVQEEPLNLSCAKKEPQKDSCVTDSEPVVNVIPPSANPINIAIPTVTAQLPTIVAIADQNSVPCLRALAANKQTILIPQVAYTYSTTVSPAVQEPPLKVIQPNGNQDERQDTSSEGVSNVEDQNDSDSTPPKKKMRKTENGMYACDLCDKIFQKSSSLLRHKYEHTGKRPHECGICKKAFKHKHHLIEHMRLHSGEKPYQCDKCGKRFSHSGSYSQHMNHRYSYCKREAEERDSTEQEEAGPEILSNEHVGARASPSQGDSDERESLTREEDEDSEKEEEEEDKEMEELQEEKECEKPQGDEEEEEEEEEVEEEEVEEAENEGEEAKTEGLMKDDRAESQASSLGQKVGESSEQVSEEKTNEA
In the case of B3, the binding [4] is reported as “binds”.
